From the supplement of paper PMC12819154, “High-throughput peptide-centric local stability assay extends protein–ligand identification to membrane proteins, tissues and bacteria” (Nature Structural & Molecular Biology, 2025)
Some of the results follow. Small differences around the control level are noise.

By UniProt entry, the sequences of proteins in these tests, tags left out. Where a name states a change or a piece, a line headed by the entry shows the natural chain unless it says otherwise.
UniProt Q3ZCX4: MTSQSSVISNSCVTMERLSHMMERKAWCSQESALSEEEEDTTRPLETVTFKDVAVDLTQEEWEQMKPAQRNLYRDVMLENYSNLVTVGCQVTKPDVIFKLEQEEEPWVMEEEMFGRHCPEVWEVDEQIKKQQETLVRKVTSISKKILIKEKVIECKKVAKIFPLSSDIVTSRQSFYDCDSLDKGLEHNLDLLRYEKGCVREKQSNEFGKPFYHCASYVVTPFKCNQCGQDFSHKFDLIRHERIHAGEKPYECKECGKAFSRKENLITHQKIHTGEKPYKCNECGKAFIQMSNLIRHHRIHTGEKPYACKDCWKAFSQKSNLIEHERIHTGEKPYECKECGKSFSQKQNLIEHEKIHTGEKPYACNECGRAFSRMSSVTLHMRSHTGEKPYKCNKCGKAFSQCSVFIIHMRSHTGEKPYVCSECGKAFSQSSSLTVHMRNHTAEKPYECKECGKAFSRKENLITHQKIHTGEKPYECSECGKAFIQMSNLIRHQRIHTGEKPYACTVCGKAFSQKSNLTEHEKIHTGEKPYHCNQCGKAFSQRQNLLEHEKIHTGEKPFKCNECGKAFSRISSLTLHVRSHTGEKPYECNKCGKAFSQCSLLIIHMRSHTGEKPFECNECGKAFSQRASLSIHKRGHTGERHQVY
UniProt Q15287: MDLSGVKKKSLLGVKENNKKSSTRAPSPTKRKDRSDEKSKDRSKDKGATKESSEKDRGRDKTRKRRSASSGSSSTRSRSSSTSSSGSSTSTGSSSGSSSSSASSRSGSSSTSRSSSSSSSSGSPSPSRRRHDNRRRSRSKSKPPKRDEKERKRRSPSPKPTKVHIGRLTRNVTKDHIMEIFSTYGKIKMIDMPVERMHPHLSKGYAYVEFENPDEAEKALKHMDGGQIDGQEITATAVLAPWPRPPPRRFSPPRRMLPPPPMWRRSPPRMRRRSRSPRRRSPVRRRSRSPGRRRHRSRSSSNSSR
UniProt Q17RN3: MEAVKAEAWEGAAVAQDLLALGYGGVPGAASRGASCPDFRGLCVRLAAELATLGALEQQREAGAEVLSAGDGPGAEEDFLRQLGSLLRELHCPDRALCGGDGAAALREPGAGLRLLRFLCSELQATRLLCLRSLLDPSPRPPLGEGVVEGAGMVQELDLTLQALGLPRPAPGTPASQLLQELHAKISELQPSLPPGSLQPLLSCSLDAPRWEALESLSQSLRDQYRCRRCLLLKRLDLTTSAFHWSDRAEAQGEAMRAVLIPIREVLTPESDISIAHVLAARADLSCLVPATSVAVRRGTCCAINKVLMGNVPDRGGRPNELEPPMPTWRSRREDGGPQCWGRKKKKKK
UniProt Q2VY69: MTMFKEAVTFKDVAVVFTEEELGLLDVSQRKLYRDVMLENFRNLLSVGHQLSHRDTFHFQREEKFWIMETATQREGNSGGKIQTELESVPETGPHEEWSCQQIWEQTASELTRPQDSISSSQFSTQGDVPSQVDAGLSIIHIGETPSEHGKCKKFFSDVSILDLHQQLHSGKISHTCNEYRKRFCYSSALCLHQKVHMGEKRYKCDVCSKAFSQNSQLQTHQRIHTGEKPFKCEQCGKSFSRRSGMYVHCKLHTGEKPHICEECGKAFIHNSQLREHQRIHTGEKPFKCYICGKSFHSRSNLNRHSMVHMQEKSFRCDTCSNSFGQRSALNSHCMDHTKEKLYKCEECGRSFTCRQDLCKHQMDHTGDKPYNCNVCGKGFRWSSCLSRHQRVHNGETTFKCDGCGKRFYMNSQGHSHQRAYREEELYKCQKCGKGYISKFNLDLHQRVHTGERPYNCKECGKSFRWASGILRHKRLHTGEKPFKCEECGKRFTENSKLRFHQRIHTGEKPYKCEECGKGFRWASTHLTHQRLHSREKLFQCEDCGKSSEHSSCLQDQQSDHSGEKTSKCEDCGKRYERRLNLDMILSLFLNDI
UniProt Q3SY56: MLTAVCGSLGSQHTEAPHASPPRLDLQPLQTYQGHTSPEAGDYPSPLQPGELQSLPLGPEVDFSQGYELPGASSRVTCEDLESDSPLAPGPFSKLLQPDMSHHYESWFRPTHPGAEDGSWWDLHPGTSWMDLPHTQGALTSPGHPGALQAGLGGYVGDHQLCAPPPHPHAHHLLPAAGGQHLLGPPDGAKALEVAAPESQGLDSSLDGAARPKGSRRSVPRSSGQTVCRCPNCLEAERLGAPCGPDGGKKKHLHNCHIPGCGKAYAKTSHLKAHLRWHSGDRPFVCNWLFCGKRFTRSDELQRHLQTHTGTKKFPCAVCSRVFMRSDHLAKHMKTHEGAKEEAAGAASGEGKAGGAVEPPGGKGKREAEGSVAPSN
UniProt Q2KHR3: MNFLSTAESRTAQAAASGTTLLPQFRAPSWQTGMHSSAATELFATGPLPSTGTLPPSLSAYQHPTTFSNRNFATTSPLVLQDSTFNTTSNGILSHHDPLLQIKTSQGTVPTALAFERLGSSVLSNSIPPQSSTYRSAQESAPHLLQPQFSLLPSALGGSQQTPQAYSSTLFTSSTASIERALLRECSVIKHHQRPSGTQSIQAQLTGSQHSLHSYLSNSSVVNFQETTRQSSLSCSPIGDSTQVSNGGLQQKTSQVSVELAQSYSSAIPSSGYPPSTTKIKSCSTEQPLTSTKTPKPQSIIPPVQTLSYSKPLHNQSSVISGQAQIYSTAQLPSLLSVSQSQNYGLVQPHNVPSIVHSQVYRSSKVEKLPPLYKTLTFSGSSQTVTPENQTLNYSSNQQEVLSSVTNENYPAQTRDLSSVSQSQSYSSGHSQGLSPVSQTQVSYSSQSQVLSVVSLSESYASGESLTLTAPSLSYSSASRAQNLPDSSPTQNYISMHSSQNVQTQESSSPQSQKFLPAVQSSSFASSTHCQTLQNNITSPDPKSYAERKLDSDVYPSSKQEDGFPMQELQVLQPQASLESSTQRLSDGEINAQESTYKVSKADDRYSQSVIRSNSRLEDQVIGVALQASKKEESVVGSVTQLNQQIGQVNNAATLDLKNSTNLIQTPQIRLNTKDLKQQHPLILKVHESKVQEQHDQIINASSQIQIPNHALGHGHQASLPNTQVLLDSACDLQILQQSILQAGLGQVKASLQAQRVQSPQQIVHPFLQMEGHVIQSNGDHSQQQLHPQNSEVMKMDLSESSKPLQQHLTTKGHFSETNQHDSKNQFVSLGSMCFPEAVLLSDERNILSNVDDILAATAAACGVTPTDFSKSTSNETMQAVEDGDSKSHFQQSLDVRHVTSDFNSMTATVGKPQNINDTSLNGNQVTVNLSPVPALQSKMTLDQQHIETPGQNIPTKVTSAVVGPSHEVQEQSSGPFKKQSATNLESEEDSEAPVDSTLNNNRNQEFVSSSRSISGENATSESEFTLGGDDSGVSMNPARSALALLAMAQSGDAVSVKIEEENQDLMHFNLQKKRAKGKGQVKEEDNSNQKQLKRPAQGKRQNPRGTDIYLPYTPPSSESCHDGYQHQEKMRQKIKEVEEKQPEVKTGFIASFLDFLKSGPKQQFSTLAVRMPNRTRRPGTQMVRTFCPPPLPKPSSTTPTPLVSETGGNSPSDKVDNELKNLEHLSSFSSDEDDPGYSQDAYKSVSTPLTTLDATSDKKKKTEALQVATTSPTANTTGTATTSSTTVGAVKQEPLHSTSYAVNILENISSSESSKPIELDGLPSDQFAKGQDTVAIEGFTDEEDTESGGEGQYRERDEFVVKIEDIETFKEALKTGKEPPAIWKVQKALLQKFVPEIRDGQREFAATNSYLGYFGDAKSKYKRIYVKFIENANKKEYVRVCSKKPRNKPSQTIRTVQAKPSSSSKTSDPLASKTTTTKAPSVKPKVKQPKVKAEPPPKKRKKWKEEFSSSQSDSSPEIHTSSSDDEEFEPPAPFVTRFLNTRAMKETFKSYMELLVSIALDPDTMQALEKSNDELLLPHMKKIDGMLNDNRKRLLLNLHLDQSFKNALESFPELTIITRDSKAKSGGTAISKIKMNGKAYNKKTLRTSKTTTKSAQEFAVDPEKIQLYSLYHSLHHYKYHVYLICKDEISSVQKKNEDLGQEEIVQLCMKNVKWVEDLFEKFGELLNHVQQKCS
UniProt Q3C1V9: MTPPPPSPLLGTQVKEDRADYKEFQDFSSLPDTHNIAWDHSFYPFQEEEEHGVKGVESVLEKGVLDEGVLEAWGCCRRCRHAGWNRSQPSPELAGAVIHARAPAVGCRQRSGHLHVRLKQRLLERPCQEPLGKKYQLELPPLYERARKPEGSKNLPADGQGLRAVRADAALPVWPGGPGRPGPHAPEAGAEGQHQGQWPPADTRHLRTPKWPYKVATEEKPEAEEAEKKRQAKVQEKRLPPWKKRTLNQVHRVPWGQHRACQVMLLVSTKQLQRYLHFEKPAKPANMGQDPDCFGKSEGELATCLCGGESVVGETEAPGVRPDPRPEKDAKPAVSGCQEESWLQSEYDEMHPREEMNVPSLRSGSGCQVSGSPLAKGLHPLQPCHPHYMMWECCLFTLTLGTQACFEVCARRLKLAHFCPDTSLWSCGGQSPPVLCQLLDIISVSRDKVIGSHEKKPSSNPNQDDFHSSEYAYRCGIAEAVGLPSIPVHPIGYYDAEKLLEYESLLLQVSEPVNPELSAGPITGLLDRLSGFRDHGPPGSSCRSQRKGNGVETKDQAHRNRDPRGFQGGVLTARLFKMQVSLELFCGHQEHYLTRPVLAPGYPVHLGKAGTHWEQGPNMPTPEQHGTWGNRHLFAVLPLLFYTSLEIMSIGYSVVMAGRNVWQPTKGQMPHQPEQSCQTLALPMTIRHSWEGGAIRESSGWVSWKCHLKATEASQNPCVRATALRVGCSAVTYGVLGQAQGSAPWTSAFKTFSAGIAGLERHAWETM
UniProt Q16385, whole entry: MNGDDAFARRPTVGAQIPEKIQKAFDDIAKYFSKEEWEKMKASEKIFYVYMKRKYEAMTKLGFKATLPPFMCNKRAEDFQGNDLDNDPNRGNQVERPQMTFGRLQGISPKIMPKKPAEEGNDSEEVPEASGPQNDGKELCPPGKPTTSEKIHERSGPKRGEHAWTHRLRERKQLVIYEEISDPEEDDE
UniProt Q15061: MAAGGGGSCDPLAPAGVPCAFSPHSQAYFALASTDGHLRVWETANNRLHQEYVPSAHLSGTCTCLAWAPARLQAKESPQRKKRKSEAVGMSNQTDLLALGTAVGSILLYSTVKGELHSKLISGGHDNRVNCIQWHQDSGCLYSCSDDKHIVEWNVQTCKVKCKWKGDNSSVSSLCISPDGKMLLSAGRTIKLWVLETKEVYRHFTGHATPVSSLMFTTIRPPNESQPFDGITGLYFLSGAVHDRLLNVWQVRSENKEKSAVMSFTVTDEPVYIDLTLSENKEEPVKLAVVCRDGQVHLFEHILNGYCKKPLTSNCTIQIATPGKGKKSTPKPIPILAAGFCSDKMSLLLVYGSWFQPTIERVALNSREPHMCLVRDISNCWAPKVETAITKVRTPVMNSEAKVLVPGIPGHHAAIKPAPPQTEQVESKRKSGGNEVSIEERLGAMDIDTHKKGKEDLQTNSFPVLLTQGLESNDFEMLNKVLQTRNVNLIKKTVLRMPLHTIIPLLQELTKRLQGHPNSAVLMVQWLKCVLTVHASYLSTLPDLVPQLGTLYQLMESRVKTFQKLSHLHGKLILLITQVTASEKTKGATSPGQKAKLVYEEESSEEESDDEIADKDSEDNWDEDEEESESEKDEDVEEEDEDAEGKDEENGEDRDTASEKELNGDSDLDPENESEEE
UniProt Q16891: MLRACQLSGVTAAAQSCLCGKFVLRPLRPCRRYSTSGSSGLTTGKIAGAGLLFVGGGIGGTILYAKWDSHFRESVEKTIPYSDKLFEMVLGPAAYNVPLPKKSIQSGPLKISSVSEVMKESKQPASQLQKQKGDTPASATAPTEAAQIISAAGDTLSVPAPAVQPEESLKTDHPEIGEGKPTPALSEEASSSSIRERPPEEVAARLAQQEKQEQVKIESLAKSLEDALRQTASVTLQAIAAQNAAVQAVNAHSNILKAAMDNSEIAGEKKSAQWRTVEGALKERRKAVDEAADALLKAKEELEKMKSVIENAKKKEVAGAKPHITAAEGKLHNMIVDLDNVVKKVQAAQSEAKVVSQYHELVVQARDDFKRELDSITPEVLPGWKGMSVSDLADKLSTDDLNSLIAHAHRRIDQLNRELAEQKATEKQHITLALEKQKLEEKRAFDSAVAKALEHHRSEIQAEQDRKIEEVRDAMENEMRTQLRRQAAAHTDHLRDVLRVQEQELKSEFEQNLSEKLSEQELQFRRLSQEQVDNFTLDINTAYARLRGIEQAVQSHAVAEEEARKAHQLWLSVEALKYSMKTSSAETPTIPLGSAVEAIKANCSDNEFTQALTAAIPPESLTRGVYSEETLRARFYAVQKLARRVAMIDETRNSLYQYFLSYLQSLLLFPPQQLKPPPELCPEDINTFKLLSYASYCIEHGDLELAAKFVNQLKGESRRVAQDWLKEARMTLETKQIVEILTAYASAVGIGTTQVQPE

The targets below were run with CN[C@@H]1C[C@H]2O[C@@](C)([C@@H]1OC)n1c3ccccc3c3c4c(c5c6ccccc6n2c5c31)C(=O)NC4 [staurosporine] (assay: log2 fold change of tryptic peptide abundance, ligand vs vehicle (limited proteolysis) (log2 ratio); higher = more trypsin-susceptible (destabilized)). Settings: ligand concentration: 20 uM; sample: K562 cleared lysate; digestion: 4 min, 22 C (HT-PELSA RT4min, Orbitrap Astral).

Target | log2 fold change
UniProt Q3ZCX4 (peptide sequence: KENLITHQK, peptide start residue: 262) | -0.188
CLPP (peptide sequence: ALPLIPIVVEQTGR, peptide start residue: 55) (UniProt Q16740) | -1.32
NOMO1 (peptide sequence: ALGQAASDNSGPEDAKR, peptide start residue: 1196) (UniProt Q15155) | -0.186
UniProt Q15287 (peptide sequence: MDLSGVKK, peptide start residue: 1) | 0.382
MTHFSD (peptide sequence: ITPPPGATK, peptide start residue: 99) (UniProt Q2M296) | -0.469
FAM98C (peptide sequence: VLMGNVPDR, peptide start residue: 307) (UniProt Q17RN3) | -0.209
UniProt Q2VY69 (peptide sequence: NLLSVGHQLSHR, peptide start residue: 43) | -0.98
SP6 (peptide sequence: AGGAVEPPGGK, peptide start residue: 353) (UniProt Q3SY56) | -0.223
QSER1 (peptide sequence: SVSTPLTTLDATSDKKK, peptide start residue: 1245) (UniProt Q2KHR3) | -0.598
UniProt Q3C1V9 (peptide sequence: TLNQVHR, peptide start residue: 246) | -0.263
UniProt Q2TAK8 (peptide sequence: QTLLNQAR, peptide start residue: 471) | 0.329
SSX2 (peptide sequence: ATLPPFMCNK, peptide start residue: 65) (UniProt Q16385) | 0.118
WDR43 (peptide sequence: MPLHTIIPLLQELTKR, peptide start residue: 497) (UniProt Q15061) | 0.462
IMMT (peptide sequence: VVSQYHELVVQAR, peptide start residue: 354) (UniProt Q16891) | 0.361
